{"source": "patent USRE40198E1", "about": "“Method and device for electrochemical immunoassay of multiple analytes” (Roche Diagnostics Operations, Inc., priority 1998, dated 2008)", "assay": "Steady state current of mediator conjugates on IDA electrodes with bipotentiostatic control", "details": "40 uM", "data": [{"compound": "O=C(CCCCC1SCC2NC(=O)NC21)NCCOCCOCCNC(=O)C1CCC(CNC(=O)[c-]2cccc2)CC1.[Fe+2].c1cc[cH-]c1", "note": "(stereo not shown) [Fc-Bi]", "values": [{"measurement": "Ratio of response Warm/RT", "result": 1.5}]}]}
